Results are given in words; binding and its absence hold for the method and conditions named. Some results given as binding are weak or reduced against the parent protein; the word gives no strength.
Assays:
[1] = molecular target: recombinant cynomolgus monkey CD39 (cynomolgus monkey); experiment: BLI (Octet)
[2] = molecular target: recombinant cynomolgus monkey CD39 (cynomolgus monkey); experiment: BLI (Octet), AHC biosensor

B1: clone 22 (antibody, human IgG4 S228P, kappa, V domains shown)
VH: QVQLVQSGAEVKKPGSSVKVSCKASGGTFSSEGISWVRQAPGQGLEWMGSILPIFGTANYAQKFQGRVTITADESTSTAYMELSSLRSEDTAVYYCAREAGYYRYRYFDLWGRGTLVTVSS
VL: EIVMTQSPATLSVSPGERATLSCRASQSVSSNLAWYQQKPGQAPRLLIYGASTRATGIPARFSGSGSGTEFTLTISSLQSEDFAVYYCQQHALWPLTFGGGTKVEIKR
binding [1]: binds
binding [2]: binds

Source: patent publication US20210095041A1
